Some of the results follow.

The chains behind the UniProt entries cited, without tags or fusion partners.
UniProt Q0JBA9, entry or part of it: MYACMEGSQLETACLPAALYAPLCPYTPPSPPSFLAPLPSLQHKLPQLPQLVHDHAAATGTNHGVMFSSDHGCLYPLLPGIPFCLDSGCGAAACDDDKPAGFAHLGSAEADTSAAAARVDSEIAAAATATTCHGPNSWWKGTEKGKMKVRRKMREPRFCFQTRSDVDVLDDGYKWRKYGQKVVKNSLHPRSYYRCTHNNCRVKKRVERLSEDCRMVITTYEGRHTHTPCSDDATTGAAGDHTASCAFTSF

The target of the assay is OsWRKY34 (Oryza sativa, UniProt Q0JBA9 1-250). As to the kind of experiment: protein-binding microarray (RPBM); PBS, 2% BSA, 51.3 ng/ul salmon testes DNA, 50 uM zinc acetate, 200 nM TF, 25 C, 1 h; high values mean tight binding. Particulars: protein: recombinant; tags: N-terminal polyhistidine and DsRed monomer fusion (pET32a); label: CyDye5-dUTP incorporated in the synthesized complementary strand; 3' TTTTT single-stranded linker to array surface; dsDNA, one strand shown. An outline of the steps: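 The binding signal for each feature is its fluorescence intensity in arbitrary units. An Axon 4000B scanner was used to read a custom Agilent array that had been made double-stranded with Cy5-dUTP primer extension, blocked with 2% BSA, incubated at 25 °C for 1 h with 200 nM protein in PBS, 2% BSA, salmon testes DNA and 50 µM zinc acetate, and washed. The protein was an N-terminal polyhistidine–DsRed transcription factor fusion from E. coli BL21-CodonPlus, purified on Ni–NTA.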
With “GGGTGTTTGAATTCTCCACTTTCTATTTCTGTGTTCCGAACGGAGTCACCTAGTGCAG”, the binding signal was 12400 fluorescence intensity (a.u.). Regarding “TTTTATAGTTTAGCTACCTCTTCTCCATTTTCTTTAATTTCGGAGTCACCTAGTGCAG”, the binding signal is 9920 fluorescence intensity (a.u.).

Turning to “GCCACCATTCCCATCTAGCGGCATGCATCTCCCGCTCCTCCGGAGTCACCTAGTGCAG”, the binding signal is 8220 fluorescence intensity (a.u.). The result for “GCCGTTGCCATAGTTCCCGTTCATCCCCTGATCGTCATCACGGAGTCACCTAGTGCAG” reads 9680 fluorescence intensity (a.u.). The result for “TATTAAGTTCCTGTACTGGAACGCACCCACTTATCAATTTCGGAGTCACCTAGTGCAG” reads 8210 fluorescence intensity (a.u.); that for “GAGGAGAGTGGTGGAGGAAGAATAGAAATGACACTTACATCGGAGTCACCTAGTGCAG”, 8180 fluorescence intensity (a.u.); that for “TCTTTTTGTTTGACTTTTTTAAAACCACAGGTCACCCTTACGGAGTCACCTAGTGCAG”, 14800 fluorescence intensity (a.u.).

In the case of “GCCCATCTCTACGCCAATCCAACGTGCACGCCACCATGTGCGGAGTCACCTAGTGCAG”, the binding signal is 8870 fluorescence intensity (a.u.). The figure for “CTGGGATCTCCTCCTCTTCTACTACTCTTCTTCCATCGCCCGGAGTCACCTAGTGCAG” is 8310 fluorescence intensity (a.u.); for “TGACTAACCTACATTGCTTGCTTCTGCTCCTCACTGCGACCGGAGTCACCTAGTGCAG” it is 8850 fluorescence intensity (a.u.). With “CGCGTGTCTCGCTCCGTCCTCGCGCGCTCGACCCCTCCGCCGGAGTCACCTAGTGCAG”, the binding signal was 8660 fluorescence intensity (a.u.). With “TGGCCATCACTCATCAGTCATCACCAACGGCGCCACACATCGGAGTCACCTAGTGCAG”, the binding signal was 9100 fluorescence intensity (a.u.). The result for “TTCTTACTGGATGGTGTACACTACTTACCCTTTTTAATGCCGGAGTCACCTAGTGCAG” reads 8650 fluorescence intensity (a.u.). Turning to “TCTAGTCTCGATTGCTTTTCTGCTGCTTCGCCCTTGCTGCCGGAGTCACCTAGTGCAG”, the binding signal is 8410 fluorescence intensity (a.u.). The result for “AACCTCTTACTTAATTGTATCGTTTCGGCTTTAATATTTGCGGAGTCACCTAGTGCAG” reads 10200 fluorescence intensity (a.u.). The figure for “ACGTCCTACTTGAAAGTGTGATGCCTAATAGTGTTTAGACCGGAGTCACCTAGTGCAG” is 8530 fluorescence intensity (a.u.); for “CCATGCACTCCGTAAATTTTTTTCTGTTAACGCGAGGCCACGGAGTCACCTAGTGCAG” it is 8930 fluorescence intensity (a.u.); for “GCATGTTCCTCAAATGCAGCATCTGGGTCACTATAATGTTCGGAGTCACCTAGTGCAG” it is 9310 fluorescence intensity (a.u.).

As to “GTGGTTTGTTCGAATTCTGGATTCTTCGGTTCTTGCTAATCGGAGTCACCTAGTGCAG”, the binding signal was 12100 fluorescence intensity (a.u.).

As to “ACCATCCGACTGGCTAAATTCCCAACCTCATTGACCAAAGCGGAGTCACCTAGTGCAG”, the binding signal was 8270 fluorescence intensity (a.u.).

Take “ATTTAGATATTTTTTCTATGGATCCTTTTGTGTTGACATACGGAGTCACCTAGTGCAG”: the binding signal was 8400 fluorescence intensity (a.u.). The figure for “ATGTTCTGCTGCCAGTTTATTTTATGTAATTTCTTTTTGCCGGAGTCACCTAGTGCAG” is 9300 fluorescence intensity (a.u.). Turning to “GGGGTGGGAGGGGAGGCAAGGTAGGCAACGCCAAGAACGGCGGAGTCACCTAGTGCAG”, the binding signal was 11400 fluorescence intensity (a.u.). As to “ACCCGATTCCCACACTAGCCCACAGCGTATAATCACATTTCGGAGTCACCTAGTGCAG”, the binding signal was 10100 fluorescence intensity (a.u.). The figure for “ATTGTATGCTATTTTTTGTTTTGTCATGAGTTAACTTTATCGGAGTCACCTAGTGCAG” is 10700 fluorescence intensity (a.u.). Consider “GGGCGCCGGTATGCTTCTTCCATTCCACCTATGTGTTTCTCGGAGTCACCTAGTGCAG”, for which the binding signal was 9490 fluorescence intensity (a.u.). The result for “TTAACTTCATGACCACTCCGCTTACTAAGAATGCTTACTTCGGAGTCACCTAGTGCAG” reads 8040 fluorescence intensity (a.u.). The result for “GGAAGAGCCGAACCAGCAACACGACATCACACGCCCATCTCGGAGTCACCTAGTGCAG” reads 8950 fluorescence intensity (a.u.); that for “TTCTCTTGTCCTCAACCCCAAAACCCTCACCCCACAACTCCGGAGTCACCTAGTGCAG”, 8460 fluorescence intensity (a.u.). The figure for “TGTTTTGCAATTCTCTGTTTTACACTTTCATTTTTATCAACGGAGTCACCTAGTGCAG” is 10600 fluorescence intensity (a.u.); for “TCCTGTGCCTCTCTCATGGTGTGGGTGTCTGTGTCTTTGACGGAGTCACCTAGTGCAG” it is 9040 fluorescence intensity (a.u.); for “GATCCGCTCAGTACACCGTAATTAATTGCCACATTTTAAACGGAGTCACCTAGTGCAG” it is 9140 fluorescence intensity (a.u.). For the sequence “ATAGGGCGGGTACCATTCTTATGGTTTCAAATTAACTACACGGAGTCACCTAGTGCAG”, the binding signal was 10700 fluorescence intensity (a.u.). The result for “CTGTTTTCTTCCCACTTAGCTTAAATATTTTAGTATGAGACGGAGTCACCTAGTGCAG” reads 9990 fluorescence intensity (a.u.).

“TATTTTCATACTACTTTGGTACTTTTGCTTTTTAGTACATCGGAGTCACCTAGTGCAG”: the binding signal was 9450 fluorescence intensity (a.u.). Turning to “CGGCCTCCACCACCGCCGTCCCAATGCCGTCGCCACCCACCGGAGTCACCTAGTGCAG”, the binding signal was 9000 fluorescence intensity (a.u.). For “AGCTTTCTTGACTTGTATGAAAAACATATCTGATCATCTCCGGAGTCACCTAGTGCAG”, the binding signal was 8550 fluorescence intensity (a.u.). For “AAAAATAAAAAATAATTATATCGAGAGTAAATATAAAATGCGGAGTCACCTAGTGCAG”, the binding signal was 10700 fluorescence intensity (a.u.). The result for “CGGTTTTGTAAATTGAGGGGTGCCATATATCTGGTTTCATCGGAGTCACCTAGTGCAG” reads 10800 fluorescence intensity (a.u.). In the case of “AGGTGTTGTGTGCTGTGGAAGTTTCTTGGGAGGGCAAGCTCGGAGTCACCTAGTGCAG”, the binding signal was 11500 fluorescence intensity (a.u.). On to “TCTTCACCTATATGTATATTGATTTGCACTACTCTACACACGGAGTCACCTAGTGCAG”, for which the binding signal was 8040 fluorescence intensity (a.u.).

As for “TCTTCTCTCGTCAAATTAACAGCCTATCGATGATCGATTACGGAGTCACCTAGTGCAG”, the binding signal is 9400 fluorescence intensity (a.u.).

These data come from article PMC7819943, “Rice protein-binding microarrays: a tool to detect cis-acting elements near promoter regions in rice”.
